From article PMC7237762 (Frontiers in Chemistry, 2020)

Test: general procedure: solution-phase peptide synthesis; HATU/HOAt/DIPEA
Conditions: for step yield: coupling step

| Substance | step yield [% for 2 steps] | cyclisation yield (cyclisation step, on linear pentapeptide 2) [% for 3 steps] | isolated yield (whole synthesis, overall from thioamide 12) [%] |
| --- | --- | --- | --- |
| tetrapeptide 15 | 83 | – | – |
| pentapeptide 2 | 71 | – | – |
| Kakeromamide A | – | 40 | 14 |
